The text below walks through data of publication PMC7717961.

Chains of the proteins cited; added tags and fusions are not shown. Lines headed by an entry give the natural chain unless they say otherwise; changes in a name come on top. A line that says so, or that is headed by a name, gives the form on record, which may keep a tag or linker.
UniProt P54105: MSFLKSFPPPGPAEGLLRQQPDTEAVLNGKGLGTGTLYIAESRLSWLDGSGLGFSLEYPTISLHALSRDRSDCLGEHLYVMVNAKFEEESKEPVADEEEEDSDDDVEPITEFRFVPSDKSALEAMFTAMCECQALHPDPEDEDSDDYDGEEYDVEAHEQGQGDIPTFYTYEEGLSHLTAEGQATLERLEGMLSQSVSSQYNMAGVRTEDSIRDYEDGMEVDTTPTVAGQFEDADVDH
ICln Ser67Ala-ECFP (P54105, form named): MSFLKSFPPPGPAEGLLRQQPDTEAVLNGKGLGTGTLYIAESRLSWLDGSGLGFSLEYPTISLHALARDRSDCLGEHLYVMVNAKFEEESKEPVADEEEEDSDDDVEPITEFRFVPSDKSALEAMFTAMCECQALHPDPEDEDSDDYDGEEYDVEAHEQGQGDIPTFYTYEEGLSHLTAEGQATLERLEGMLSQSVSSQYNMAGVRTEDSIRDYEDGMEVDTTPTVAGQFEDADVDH

No constants are given. Whether binding was seen depends on the method and setting. In cells and extracts the contact can be indirect. Some entries that bind do so weakly or less than the wild type. Sequences can lack the tags named with a protein.

Assay [1] addresses T1, EYFP-OGT (O-GlcNAc-transferase with EYFP at its N-terminus) (human) (UniProt O15294).
T1 sequence: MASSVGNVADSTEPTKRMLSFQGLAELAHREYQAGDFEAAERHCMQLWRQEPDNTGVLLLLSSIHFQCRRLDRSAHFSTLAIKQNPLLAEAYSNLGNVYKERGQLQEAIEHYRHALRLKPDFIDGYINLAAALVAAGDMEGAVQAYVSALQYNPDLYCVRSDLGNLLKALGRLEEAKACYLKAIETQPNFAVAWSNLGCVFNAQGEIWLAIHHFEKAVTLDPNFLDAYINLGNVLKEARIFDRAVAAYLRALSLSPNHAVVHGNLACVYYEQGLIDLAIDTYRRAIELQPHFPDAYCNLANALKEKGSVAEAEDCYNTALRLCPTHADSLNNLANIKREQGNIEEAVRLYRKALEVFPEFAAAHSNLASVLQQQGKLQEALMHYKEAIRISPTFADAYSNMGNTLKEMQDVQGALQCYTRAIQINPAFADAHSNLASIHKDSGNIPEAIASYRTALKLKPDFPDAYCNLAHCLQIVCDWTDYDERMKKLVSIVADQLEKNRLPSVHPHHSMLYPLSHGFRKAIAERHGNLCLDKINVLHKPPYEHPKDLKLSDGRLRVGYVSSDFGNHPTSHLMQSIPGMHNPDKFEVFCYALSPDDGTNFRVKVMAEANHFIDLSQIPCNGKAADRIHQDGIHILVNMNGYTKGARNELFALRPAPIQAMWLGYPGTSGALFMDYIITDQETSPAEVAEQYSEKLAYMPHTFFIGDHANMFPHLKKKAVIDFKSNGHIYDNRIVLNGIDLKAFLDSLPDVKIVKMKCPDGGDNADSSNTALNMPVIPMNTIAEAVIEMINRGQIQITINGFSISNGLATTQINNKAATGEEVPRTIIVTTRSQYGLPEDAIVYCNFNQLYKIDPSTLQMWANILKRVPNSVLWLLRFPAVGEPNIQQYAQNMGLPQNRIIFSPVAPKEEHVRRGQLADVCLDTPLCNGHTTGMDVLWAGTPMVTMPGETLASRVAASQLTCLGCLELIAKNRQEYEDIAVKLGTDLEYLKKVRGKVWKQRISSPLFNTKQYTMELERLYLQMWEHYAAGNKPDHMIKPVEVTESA
In words: FRET or BRET; acceptor photobleaching FRET in fixed HeLa cells transfected for 48 h; donor ECFP, acceptor EYFP; FRET efficiency determined within the bleaching ROIs; unstimulated cells; imaging in HBSS at room temperature. For orientation: Bioluminescence resonance energy transfer reports proximity on the nanometre scale.

Assay [2] concerns the target T2, EYFP-OGA (O-GlcNAcase with EYFP) (human) (UniProt O60502).
T2 sequence: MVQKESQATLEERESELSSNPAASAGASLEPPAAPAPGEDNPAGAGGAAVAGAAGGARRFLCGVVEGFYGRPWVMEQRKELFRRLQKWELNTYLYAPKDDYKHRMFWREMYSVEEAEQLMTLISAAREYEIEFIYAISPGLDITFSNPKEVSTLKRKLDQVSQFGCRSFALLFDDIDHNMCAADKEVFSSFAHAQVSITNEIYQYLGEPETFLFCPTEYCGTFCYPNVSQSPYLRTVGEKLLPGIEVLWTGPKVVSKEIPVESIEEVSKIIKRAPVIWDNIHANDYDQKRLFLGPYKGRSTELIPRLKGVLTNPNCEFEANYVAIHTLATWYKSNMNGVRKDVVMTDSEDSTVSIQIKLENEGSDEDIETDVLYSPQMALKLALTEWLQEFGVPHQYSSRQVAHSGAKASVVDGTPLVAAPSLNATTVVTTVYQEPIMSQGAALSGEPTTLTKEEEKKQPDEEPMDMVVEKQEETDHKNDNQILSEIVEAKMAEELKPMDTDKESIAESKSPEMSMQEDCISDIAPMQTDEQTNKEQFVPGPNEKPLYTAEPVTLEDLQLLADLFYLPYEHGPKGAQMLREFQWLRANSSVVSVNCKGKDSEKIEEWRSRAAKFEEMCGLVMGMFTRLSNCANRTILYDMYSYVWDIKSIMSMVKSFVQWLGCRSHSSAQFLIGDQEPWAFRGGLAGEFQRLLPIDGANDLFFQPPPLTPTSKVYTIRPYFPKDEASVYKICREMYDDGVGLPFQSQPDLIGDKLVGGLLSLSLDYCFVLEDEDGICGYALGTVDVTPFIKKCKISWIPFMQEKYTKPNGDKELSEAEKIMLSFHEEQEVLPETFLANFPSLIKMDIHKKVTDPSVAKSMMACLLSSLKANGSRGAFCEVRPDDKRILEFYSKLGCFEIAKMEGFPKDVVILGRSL
The description is as above.

For the substance “ICln Ser67Ala-ECFP (from UniProt P54105 1-237)”, the binding result in assay [1] was “binds”.
Regarding “ICln-ECFP (wild-type ICln fused to enhanced cyan fluorescent protein) (from UniProt P54105 1-237)”, the binding entry in assay [2] is “no binding”; in assay [1], “binds”.
